According to paper doi:10.1101/2020.03.04.975474:
Like-named read-outs stand apart in the source and are kept apart here. No constants are given. Whether binding was seen depends on the method and setting. Binding seen in cells or lysates may run through a third protein. These calls come from enrichment with a bait or labelling near it, and not all partners need be listed.

The chains behind the UniProt entries cited, without tags or fusion partners.
UniProt P55010: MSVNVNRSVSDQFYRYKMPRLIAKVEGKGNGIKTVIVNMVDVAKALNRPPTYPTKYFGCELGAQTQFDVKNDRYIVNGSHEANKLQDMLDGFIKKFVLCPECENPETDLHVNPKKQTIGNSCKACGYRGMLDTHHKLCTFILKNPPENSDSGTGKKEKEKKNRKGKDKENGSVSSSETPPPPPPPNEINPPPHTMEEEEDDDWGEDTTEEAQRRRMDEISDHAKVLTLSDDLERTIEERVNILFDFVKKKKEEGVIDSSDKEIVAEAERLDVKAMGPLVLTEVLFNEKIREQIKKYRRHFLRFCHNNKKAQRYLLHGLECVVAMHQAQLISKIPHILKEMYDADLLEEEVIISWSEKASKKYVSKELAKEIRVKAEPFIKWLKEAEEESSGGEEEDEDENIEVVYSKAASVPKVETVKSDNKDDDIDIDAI
UniProt P48634: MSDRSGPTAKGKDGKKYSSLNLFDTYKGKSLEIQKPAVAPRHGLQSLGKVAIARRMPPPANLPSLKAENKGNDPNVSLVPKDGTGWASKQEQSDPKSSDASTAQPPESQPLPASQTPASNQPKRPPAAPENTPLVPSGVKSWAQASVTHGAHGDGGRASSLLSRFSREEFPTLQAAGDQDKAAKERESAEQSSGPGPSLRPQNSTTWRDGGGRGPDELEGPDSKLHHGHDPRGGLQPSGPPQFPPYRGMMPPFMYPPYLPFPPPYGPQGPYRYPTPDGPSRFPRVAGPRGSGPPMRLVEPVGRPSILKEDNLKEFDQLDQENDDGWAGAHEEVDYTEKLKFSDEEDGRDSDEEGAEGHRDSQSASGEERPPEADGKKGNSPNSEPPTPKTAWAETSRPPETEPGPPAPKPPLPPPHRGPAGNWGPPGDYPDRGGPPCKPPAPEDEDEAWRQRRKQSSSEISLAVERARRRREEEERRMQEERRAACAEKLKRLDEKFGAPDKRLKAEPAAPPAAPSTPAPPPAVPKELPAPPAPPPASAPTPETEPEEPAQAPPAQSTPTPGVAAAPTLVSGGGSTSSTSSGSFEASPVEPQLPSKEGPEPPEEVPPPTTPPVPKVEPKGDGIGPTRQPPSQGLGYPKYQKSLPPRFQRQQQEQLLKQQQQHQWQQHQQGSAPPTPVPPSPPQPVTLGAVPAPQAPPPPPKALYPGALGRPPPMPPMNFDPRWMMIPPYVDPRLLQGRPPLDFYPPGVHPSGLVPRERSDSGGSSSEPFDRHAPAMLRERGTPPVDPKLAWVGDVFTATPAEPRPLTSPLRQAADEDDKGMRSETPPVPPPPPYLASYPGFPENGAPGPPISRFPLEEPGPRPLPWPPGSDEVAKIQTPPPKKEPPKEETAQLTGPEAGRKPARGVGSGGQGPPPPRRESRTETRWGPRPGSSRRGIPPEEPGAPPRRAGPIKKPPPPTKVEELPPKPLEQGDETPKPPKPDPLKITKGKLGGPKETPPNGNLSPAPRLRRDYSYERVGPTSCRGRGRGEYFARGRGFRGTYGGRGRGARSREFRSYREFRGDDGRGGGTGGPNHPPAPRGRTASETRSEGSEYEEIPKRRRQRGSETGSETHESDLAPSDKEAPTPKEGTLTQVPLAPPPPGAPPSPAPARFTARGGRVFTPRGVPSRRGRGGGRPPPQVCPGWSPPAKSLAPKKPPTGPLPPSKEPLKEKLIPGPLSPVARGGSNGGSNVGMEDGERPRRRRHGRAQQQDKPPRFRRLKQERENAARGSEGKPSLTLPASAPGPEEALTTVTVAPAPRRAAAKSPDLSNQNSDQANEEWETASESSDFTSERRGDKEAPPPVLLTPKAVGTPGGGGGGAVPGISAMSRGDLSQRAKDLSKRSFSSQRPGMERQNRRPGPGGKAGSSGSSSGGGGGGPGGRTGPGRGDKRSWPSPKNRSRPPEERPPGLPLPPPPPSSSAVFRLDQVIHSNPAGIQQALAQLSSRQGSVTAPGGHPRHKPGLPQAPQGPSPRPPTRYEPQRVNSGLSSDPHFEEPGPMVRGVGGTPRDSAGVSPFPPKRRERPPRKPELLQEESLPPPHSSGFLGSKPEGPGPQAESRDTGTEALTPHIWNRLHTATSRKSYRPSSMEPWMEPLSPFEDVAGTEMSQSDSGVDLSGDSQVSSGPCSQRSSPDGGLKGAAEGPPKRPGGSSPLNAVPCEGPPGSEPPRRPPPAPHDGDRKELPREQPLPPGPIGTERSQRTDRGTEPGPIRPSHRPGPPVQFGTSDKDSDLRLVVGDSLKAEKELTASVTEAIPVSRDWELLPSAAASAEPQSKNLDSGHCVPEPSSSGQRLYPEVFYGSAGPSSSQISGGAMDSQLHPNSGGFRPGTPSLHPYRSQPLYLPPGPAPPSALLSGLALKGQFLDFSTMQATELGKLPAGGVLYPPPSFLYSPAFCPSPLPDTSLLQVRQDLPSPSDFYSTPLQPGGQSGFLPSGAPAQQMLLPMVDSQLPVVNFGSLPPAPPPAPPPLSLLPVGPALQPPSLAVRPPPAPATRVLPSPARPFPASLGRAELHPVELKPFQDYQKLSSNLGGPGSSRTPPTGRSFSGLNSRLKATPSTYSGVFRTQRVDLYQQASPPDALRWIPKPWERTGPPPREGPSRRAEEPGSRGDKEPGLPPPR
UniProt P61011: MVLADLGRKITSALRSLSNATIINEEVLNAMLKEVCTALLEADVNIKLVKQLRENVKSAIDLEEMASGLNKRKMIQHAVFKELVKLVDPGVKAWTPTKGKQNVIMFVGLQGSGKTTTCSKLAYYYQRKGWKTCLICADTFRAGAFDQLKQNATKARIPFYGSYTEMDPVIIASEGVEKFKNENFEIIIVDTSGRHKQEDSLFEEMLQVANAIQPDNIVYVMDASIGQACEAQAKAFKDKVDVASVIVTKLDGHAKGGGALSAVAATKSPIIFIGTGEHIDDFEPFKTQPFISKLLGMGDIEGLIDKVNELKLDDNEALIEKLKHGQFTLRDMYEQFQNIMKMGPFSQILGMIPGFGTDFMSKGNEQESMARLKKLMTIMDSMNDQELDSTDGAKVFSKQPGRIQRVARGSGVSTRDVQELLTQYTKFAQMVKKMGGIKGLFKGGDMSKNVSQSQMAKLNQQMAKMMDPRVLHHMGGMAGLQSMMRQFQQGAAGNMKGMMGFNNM
UniProt Q14157: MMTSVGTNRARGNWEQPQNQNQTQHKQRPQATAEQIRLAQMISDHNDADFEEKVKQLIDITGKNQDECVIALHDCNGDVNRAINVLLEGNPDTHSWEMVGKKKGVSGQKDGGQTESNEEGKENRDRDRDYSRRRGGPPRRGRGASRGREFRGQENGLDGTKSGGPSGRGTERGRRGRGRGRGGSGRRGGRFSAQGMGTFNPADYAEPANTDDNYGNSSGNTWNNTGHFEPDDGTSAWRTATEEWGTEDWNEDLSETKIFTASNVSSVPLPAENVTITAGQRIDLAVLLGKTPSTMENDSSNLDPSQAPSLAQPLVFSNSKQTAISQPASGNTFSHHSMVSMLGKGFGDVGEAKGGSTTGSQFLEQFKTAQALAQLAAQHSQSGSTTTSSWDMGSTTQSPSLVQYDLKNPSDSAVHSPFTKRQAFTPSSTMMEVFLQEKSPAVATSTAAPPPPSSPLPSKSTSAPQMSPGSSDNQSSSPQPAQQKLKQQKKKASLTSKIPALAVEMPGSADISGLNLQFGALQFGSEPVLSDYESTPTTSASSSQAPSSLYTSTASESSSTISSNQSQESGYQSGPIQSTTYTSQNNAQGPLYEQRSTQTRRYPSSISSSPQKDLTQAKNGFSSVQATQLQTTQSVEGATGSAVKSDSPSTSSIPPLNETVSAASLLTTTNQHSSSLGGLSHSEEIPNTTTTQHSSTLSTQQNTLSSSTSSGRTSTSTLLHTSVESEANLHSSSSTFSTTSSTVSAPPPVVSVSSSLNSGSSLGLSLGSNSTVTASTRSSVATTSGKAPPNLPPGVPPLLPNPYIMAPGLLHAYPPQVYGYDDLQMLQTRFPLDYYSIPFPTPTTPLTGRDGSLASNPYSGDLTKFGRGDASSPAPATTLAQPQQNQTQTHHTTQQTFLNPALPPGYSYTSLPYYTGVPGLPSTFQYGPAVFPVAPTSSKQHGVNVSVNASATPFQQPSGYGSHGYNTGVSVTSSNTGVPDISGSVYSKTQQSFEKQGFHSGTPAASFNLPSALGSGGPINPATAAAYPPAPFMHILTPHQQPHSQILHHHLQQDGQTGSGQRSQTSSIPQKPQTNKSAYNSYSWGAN
UniProt Q7KZF4: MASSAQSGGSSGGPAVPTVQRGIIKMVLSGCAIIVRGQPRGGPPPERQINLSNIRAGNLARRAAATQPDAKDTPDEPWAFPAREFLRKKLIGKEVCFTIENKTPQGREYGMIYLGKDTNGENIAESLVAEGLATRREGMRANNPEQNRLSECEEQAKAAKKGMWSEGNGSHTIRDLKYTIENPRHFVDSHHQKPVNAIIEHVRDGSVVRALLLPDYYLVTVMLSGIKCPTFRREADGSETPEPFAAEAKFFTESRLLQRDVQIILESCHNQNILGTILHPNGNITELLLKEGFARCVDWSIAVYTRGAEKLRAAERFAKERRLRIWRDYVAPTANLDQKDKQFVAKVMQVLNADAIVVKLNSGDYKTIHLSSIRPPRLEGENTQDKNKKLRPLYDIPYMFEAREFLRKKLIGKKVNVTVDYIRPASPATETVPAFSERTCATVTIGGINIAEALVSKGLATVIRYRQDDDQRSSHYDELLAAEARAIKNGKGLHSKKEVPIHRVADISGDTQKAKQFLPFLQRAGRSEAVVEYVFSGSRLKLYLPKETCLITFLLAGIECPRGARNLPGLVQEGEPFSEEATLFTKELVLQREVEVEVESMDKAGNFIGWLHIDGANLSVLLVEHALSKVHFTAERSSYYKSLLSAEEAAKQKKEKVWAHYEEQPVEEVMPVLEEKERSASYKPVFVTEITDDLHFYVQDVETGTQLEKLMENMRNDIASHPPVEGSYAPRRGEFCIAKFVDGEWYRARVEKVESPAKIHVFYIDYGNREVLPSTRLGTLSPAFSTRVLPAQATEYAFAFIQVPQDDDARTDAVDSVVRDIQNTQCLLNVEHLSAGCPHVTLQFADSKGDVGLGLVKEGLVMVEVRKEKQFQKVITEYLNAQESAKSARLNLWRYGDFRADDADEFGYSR

How the values were obtained:
[1] = target: T1, LRRC59-BirA reporter (UniProt Q96AG4); assay: proximity labelling
T1 sequence: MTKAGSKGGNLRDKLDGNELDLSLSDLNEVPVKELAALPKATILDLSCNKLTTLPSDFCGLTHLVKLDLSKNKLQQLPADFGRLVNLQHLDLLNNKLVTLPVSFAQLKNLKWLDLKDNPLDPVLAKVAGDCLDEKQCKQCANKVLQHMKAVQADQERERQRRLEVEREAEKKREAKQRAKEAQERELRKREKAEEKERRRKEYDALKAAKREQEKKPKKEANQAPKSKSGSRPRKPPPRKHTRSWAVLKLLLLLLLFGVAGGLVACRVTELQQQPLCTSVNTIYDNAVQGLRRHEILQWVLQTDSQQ

[2] = target: T2, LRRC59 (native, immunoprecipitated from Caco-2 cells) (human (endogenous in Caco-2)) (UniProt Q96AG4); assay: affinity purification with mass spectrometry
T2 sequence: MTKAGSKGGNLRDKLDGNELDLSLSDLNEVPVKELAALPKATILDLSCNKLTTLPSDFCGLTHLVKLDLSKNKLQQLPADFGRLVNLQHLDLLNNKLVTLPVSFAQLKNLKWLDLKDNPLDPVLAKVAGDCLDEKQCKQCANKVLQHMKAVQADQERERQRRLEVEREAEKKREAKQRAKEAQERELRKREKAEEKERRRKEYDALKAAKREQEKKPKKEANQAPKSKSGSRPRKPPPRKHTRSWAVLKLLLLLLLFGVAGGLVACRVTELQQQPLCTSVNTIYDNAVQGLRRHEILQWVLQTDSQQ

[3] = target: T1, LRRC59-BirA reporter; assay: proximity labelling; remark: listed apart in the source

Molecule	binding [1]	binding [2]	binding [3]
eIF5 (from UniProt P55010 1-431)	binds		
PRRC2A (from UniProt P48634 1-2157)	binds		
SRP54 (from UniProt P61011 1-504)	binds	binds	
UBAP2L (from UniProt Q14157 1-1087)	binds		
SND1 (from UniProt Q7KZF4 1-910)	binds		
eIF2A (protein, UniProt Q9BY44 1-585) MAPSTPLLTVRGSEGLYMVNGPPHFTESTVFPRESGKNCKVCIFSKDGTLFAWGNGEKVNIISVTNKGLLHSFDLLKAVCLEFSPKNTVLATWQPYTTSKDGTAGIPNLQLYDVKTGTCLKSFIQKKMQNWCPSWSEDETLCARNVNNEVHFFENNNFNTIANKLHLQKINDFVLSPGPQPYKVAVYVPGSKGAPSFVRLYQYPNFAGPHAALANKSFFKADKVTMLWNKKATAVLVIASTDVDKTGASYYGEQTLHYIATNGESAVVQLPKNGPIYDVVWNSSSTEFCAVYGFMPAKATIFNLKCDPVFDFGTGPRNAAYYSPHGHILVLAGFGNLRGQMEVWDVKNYKLISKPVASDSTYFAWCPDGEHILTATCAPRLRVNNGYKIWHYTGSILHKYDVPSNAELWQVSWQPFLDGIFPAKTITYQAVPSEVPNEEPKVATAYRPPALRNKPITNSKLHEEEPPQNMKPQSGNDKPLSKTALKNQRKHEAKKAAKQEARSDKSPDLAPTPAPQSTPRNTVSQSISGDPEIDKKIKNLKKKLKAIEQLKEQAATGKQLEKNQLEKIQKETALLQELEDLELGI			binds
SRP72 (protein, UniProt O76094 1-671) MASGGSGGVSVPALWSEVNRYGQNGDFTRALKTVNKILQINKDDVTALHCKVVCLIQNGSFKEALNVINTHTKVLANNSLSFEKAYCEYRLNRIENALKTIESANQQTDKLKELYGQVLYRLERYDECLAVYRDLVRNSQDDYDEERKTNLSAVVAAQSNWEKVVPENLGLQEGTHELCYNTACALIGQGQLNQAMKILQKAEDLCRRSLSEDTDGTEEDPQAELAIIHGQMAYILQLQGRTEEALQLYNQIIKLKPTDVGLLAVIANNIITINKDQNVFDSKKKVKLTNAEGVEFKLSKKQLQAIEFNKALLAMYTNQAEQCRKISASLQSQSPEHLLPVLIQAAQLCREKQHTKAIELLQEFSDQHPENAAEIKLTMAQLKISQGNISKACLILRSIEELKHKPGMVSALVTMYSHEEDIDSAIEVFTQAIQWYQNHQPKSPAHLSLIREAANFKLKYGRKKEAISDLQQLWKQNPKDIHTLAQLISAYSLVDPEKAKALSKHLPSSDSMSLKVDVEALENSAGATYIRKKGGKVTGDSQPKEQGQGDLKKKKKKKKGKLPKNYDPKVTPDPERWLPMRERSYYRGRKKGKKKDQIGKGTQGATAGASSELDASKTVSSPPTSPRPGSAATVSASTSNIIPPRHQKPAGAPATKKKQQQKKKKGGKGGW		binds	binds
MTDH/AEG-1 (protein, UniProt Q86UE4 1-582) MAARSWQDELAQQAEEGSARLREMLSVGLGFLRTELGLDLGLEPKRYPGWVILVGTGALGLLLLFLLGYGWAAACAGARKKRRSPPRKREEAAAVPAAAPDDLALLKNLRSEEQKKKNRKKLSEKPKPNGRTVEVAEGEAVRTPQSVTAKQPPEIDKKNEKSKKNKKKSKSDAKAVQNSSRHDGKEVDEGAWETKISHREKRQQRKRDKVLTDSGSLDSTIPGIENTITVTTEQLTTASFPVGSKKNKGDSHLNVQVSNFKSGKGDSTLQVSSGLNENLTVNGGGWNEKSVKLSSQISAGEEKWNSVSPASAGKRKTEPSAWSQDTGDANTNGKDWGRSWSDRSIFSGIGSTAEPVSQSTTSDYQWDVSRNQPYIDDEWSGLNGLSSADPNSDWNAPAEEWGNWVDEERASLLKSQEPIPDDQKVSDDDKEKGEGALPTGKSKKKKKKKKKQGEDNSTAQDTEELEKEIREDLPVNTSKTRPKQEKAFSLKTISTSDPAEVLVKNSQPIKTLPPATSTEPSVILSKSDSDKSSSQVPPILQETDKSKSNTKQNSVPPSQTKSETSWESPKQIKKKKKARRET			binds
RRBP1 (p180, ribosome-binding protein) (protein, UniProt Q9P2E9 1-1410) MDIYDTQTLGVVVFGGFMVVSAIGIFLVSTFSMKETSYEEALANQRKEMAKTHHQKVEKKKKEKTVEKKGKTKKKEEKPNGKIPDHDPAPNVTVLLREPVRAPAVAVAPTPVQPPIIVAPVATVPAMPQEKLASSPKDKKKKEKKVAKVEPAVSSVVNSIQVLTSKAAILETAPKEVPMVVVPPVGAKGNTPATGTTQGKKAEGTQNQSKKAEGAPNQGRKAEGTPNQGKKTEGTPNQGKKAEGTPNQGKKAEGTPNQGKKAEGAQNQGKKVDTTPNQGKKVEGAPTQGRKAEGAQNQAKKVEGAQNQGKKAEGAQNQGKKGEGAQNQGKKAEGAQNQGKKAEGAQNQGKKAEGAQNQGKKAEGAQNQGKKAEGAQNQGKKAEGAQNQGKKVEGAQNQGKKAEGAQNQGKKAEGAQNQGKKAEGAQNQGKKAEGAQNQGKKAEGAQNQGKKAEGAQNQGKKAEGAQNQGKKVEGAQNQGKKAEGAQNQGKKAEGAQNQGKKAEGAQNQGQKGEGAQNQGKKTEGAQGKKAERSPNQGKKGEGAPIQGKKADSVANQGTKVEGITNQGKKAEGSPSEGKKAEGSPNQGKKADAAANQGKKTESASVQGRNTDVAQSPEAPKQEAPAKKKSGSKKKGEPGPPDADGPLYLPYKTLVSTVGSMVFNEGEAQRLIEILSEKAGIIQDTWHKATQKGDPVAILKRQLEEKEKLLATEQEDAAVAKSKLRELNKEMAAEKAKAAAGEAKVKKQLVAREQEITAVQARMQASYREHVKEVQQLQGKIRTLQEQLENGPNTQLARLQQENSILRDALNQATSQVESKQNAELAKLRQELSKVSKELVEKSEAVRQDEQQRKALEAKAAAFEKQVLQLQASHRESEEALQKRLDEVSRELCHTQSSHASLRADAEKAQEQQQQMAELHSKLQSSEAEVRSKCEELSGLHGQLQEARAENSQLTERIRSIEALLEAGQARDAQDVQASQAEADQQQTRLKELESQVSGLEKEAIELREAVEQQKVKNNDLREKNWKAMEALATAEQACKEKLLSLTQAKEESEKQLCLIEAQTMEALLALLPELSVLAQQNYTEWLQDLKEKGPTLLKHPPAPAEPSSDLASKLREAEETQSTLQAECDQYRSILAETEGMLRDLQKSVEEEEQVWRAKVGAAEEELQKSRVTVKHLEEIVEKLKGELESSDQVREHTSHLEAELEKHMAAASAECQNYAKEVAGLRQLLLESQSQLDAAKSEAQKQSDELALVRQQLSEMKSHVEDGDIAGAPASSPEAPPAEQDPVQLKTQLEWTEAILEDEQTQRQKLTAEFEEAQTSACRLQEELEKLRTAGPLESSETEEASQLKERLEKEKKLTSDLGRAATRLQELLKTTQEQLAREKDTVKKLQEQLEKAEDGSSSKEGTSV		binds	binds
SRP68 (protein, UniProt Q9UHB9 1-627) MAAEKQVPGGGGGGGSGGGGGSGGGGSGGGRGAGGEENKENERPSAGSKANKEFGDSLSLEILQIIKESQQQHGLRHGDFQRYRGYCSRRQRRLRKTLNFKMGNRHKFTGKKVTEELLTDNRYLLLVLMDAERAWSYAMQLKQEANTEPRKRFHLLSRLRKAVKHAEELERLCESNRVDAKTKLEAQAYTAYLSGMLRFEHQEWKAAIEAFNKCKTIYEKLASAFTEEQAVLYNQRVEEISPNIRYCAYNIGDQSAINELMQMRLRSGGTEGLLAEKLEALITQTRAKQAATMSEVEWRGRTVPVKIDKVRIFLLGLADNEAAIVQAESEETKERLFESMLSECRDAIQVVREELKPDQKQRDYILEGEPGKVSNLQYLHSYLTYIKLSTAIKRNENMAKGLQRALLQQQPEDDSKRSPRPQDLIRLYDIILQNLVELLQLPGLEEDKAFQKEIGLKTLVFKAYRCFFIAQSYVLVKKWSEALVLYDRVLKYANEVNSDAGAFKNSLKDLPDVQELITQVRSEKCSLQAAAILDANDAHQTETSSSQVKDNKPLVERFETFCLDPSLVTKQANLVHFPPGFQPIPCKPLFFDLALNHVAFPPLEDKLEQKTKSGLTGYIKGIFGFRS		binds	binds
DHX29 (protein, UniProt Q7Z478 1-1369) MGGKNKKHKAPAAAVVRAAVSASRAKSAEAGIAGEAQSKKPVSRPATAAAAAAGSREPRVKQGPKIYSFNSTNDSSGPANLDKSILKVVINNKLEQRIIGVINEHKKQNNDKGMISGRLTAKKLQDLYMALQAFSFKTKDIEDAMTNTLLYGGDLHSALDWLCLNLSDDALPEGFSQEFEEQQPKSRPKFQSPQIQATISPPLQPKTKTYEEDPKSKPKKEEKNMEVNMKEWILRYAEQQNEEEKNENSKSLEEEEKFDPNERYLHLAAKLLDAKEQAATFKLEKNKQGQKEAQEKIRKFQREMETLEDHPVFNPAMKISHQQNERKKPPVATEGESALNFNLFEKSAAATEEEKDKKKEPHDVRNFDYTARSWTGKSPKQFLIDWVRKNLPKSPNPSFEKVPVGRYWKCRVRVIKSEDDVLVVCPTILTEDGMQAQHLGATLALYRLVKGQSVHQLLPPTYRDVWLEWSDAEKKREELNKMETNKPRDLFIAKLLNKLKQQQQQQQQHSENKRENSEDPEESWENLVSDEDFSALSLESANVEDLEPVRNLFRKLQSTPKYQKLLKERQQLPVFKHRDSIVETLKRHRVVVVAGETGSGKSTQVPHFLLEDLLLNEWEASKCNIVCTQPRRISAVSLANRVCDELGCENGPGGRNSLCGYQIRMESRACESTRLLYCTTGVLLRKLQEDGLLSNVSHVIVDEVHERSVQSDFLLIILKEILQKRSDLHLILMSATVDSEKFSTYFTHCPILRISGRSYPVEVFHLEDIIEETGFVLEKDSEYCQKFLEEEEEVTINVTSKAGGIKKYQEYIPVQTGAHADLNPFYQKYSSRTQHAILYMNPHKINLDLILELLAYLDKSPQFRNIEGAVLIFLPGLAHIQQLYDLLSNDRRFYSERYKVIALHSILSTQDQAAAFTLPPPGVRKIVLATNIAETGITIPDVVFVIDTGRTKENKYHESSQMSSLVETFVSKASALQRQGRAGRVRDGFCFRMYTRERFEGFMDYSVPEILRVPLEELCLHIMKCNLGSPEDFLSKALDPPQLQVISNAMNLLRKIGACELNEPKLTPLGQHLAALPVNVKIGKMLIFGAIFGCLDPVATLAAVMTEKSPFTTPIGRKDEADLAKSALAMADSDHLTIYNAYLGWKKARQEGGYRSEITYCRRNFLNRTSLLTLEDVKQELIKLVKAAGFSSSTTSTSWEGNRASQTLSFQEIALLKAVLVAGLYDNVGKIIYTKSVDVTEKLACIVETAQGKAQVHPSSVNRDLQTHGWLLYQEKIRYARVYLRETTLITPFPVLLFGGDIEVQHRERLLSIDGWIYFQAPVKIAVIFKQLRVLIDSVLRKKLENPKMSLENDKILQIITELIKTENN		binds	binds
